Binding data for two substances are collected here from publication PMC11164680.

Amino acid sequences for entries named in this document (tags omitted). A change or cut given only in a name is not applied to a line headed by its entry. Chains listed by the source or under a name are the forms on record and can include a tag or linker.
HA-tagged P4HA2, wild type (O15460, form named): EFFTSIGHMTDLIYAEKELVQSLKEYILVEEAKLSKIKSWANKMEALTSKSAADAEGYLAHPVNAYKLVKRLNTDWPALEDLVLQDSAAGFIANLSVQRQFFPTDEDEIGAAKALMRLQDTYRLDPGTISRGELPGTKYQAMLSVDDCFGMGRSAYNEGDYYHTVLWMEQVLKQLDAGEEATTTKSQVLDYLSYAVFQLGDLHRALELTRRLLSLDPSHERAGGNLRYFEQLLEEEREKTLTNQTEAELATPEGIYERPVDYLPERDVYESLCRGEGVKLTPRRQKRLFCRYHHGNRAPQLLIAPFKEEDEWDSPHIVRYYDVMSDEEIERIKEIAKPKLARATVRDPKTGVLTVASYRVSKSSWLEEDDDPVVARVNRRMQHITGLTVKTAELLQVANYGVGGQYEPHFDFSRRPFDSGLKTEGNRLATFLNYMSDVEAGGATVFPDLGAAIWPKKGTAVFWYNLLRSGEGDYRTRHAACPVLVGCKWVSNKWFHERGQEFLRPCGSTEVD
UniProt O14965: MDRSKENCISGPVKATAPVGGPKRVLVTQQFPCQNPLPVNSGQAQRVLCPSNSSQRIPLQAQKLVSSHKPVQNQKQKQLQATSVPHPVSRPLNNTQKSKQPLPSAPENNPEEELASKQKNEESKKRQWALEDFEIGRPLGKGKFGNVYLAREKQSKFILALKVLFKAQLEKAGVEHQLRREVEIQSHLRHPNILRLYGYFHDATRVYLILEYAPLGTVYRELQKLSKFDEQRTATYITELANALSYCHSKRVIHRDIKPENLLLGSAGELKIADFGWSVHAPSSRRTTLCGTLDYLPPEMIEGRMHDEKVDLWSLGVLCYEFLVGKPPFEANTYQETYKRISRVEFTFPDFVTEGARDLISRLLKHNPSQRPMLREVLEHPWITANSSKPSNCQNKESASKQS
UniProt Q14004: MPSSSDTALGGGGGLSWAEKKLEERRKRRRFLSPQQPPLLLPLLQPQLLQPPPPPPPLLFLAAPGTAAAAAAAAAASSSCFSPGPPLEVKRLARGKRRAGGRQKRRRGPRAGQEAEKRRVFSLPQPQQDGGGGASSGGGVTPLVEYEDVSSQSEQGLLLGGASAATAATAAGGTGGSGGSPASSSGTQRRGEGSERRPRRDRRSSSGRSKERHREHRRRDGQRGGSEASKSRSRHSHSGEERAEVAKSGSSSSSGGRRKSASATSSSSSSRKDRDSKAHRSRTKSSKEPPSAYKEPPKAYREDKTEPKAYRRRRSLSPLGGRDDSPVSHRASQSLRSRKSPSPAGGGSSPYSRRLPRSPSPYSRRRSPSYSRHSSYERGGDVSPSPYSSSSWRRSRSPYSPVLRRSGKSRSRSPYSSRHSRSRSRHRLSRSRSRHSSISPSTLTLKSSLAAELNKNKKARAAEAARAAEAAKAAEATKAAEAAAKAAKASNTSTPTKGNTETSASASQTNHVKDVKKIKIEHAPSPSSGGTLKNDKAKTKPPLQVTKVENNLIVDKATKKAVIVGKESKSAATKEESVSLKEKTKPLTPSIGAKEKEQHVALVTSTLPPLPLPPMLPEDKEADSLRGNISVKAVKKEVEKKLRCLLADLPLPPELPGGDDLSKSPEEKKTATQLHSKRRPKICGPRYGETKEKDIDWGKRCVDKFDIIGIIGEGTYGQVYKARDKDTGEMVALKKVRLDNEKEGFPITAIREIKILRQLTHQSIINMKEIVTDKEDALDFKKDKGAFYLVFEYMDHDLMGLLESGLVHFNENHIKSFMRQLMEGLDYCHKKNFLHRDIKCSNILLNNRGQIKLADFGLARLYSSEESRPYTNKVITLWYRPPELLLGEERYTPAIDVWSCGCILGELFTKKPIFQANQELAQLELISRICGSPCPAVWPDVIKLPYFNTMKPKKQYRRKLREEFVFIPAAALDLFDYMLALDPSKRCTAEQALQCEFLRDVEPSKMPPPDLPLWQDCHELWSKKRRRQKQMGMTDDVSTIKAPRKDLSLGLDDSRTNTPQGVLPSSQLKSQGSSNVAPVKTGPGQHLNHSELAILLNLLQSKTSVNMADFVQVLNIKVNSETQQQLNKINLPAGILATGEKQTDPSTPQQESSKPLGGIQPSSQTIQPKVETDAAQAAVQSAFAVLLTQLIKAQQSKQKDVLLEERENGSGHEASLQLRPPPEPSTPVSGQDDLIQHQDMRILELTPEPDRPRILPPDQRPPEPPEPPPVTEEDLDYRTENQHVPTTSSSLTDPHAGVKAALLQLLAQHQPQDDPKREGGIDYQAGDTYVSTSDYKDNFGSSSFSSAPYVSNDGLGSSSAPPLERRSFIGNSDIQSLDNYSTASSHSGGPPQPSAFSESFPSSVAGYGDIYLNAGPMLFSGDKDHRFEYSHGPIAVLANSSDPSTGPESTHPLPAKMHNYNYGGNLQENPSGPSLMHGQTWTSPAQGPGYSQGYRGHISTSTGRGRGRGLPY

No constants are given. Whether binding was seen depends on the method and setting. Binding seen in cells or lysates may run through a third protein. These calls come from enrichment with a bait or labelling near it, and not all partners need be listed.

In this assay the target is HA-tagged P4HA2, wild type (human) (UniProt O15460). The assay is described as follows: affinity purification with mass spectrometry; anti-Flag or anti-HA IP from whole-cell lysates of 293T cells transfected with Flag-mTOR or HA-P4HA2, normoxia; IP buffer 50 mM Tris-HCl pH 7.5, 150 mM NaCl, 0.5% NP-40, 10% glycerol; eluted with 8 M urea, trypsin, Orbitrap Fusion Lumos.

For the substance “Aurora kinase A, endogenous in 293T cells (from UniProt O14965 1-403) (enzyme)”, the binding result is given as “binds”.
For “Cyclin-dependent kinase 13, endogenous in 293T cells (from UniProt Q14004 1-1512) (enzyme)” the value was “binds”.
